# In the supplement of paper PMC8728848:
# This is one part of the list.
# B1: Blon0732mut (Bifidobacterium longum) (protein)
# chain: MPTSEHKADDATRHLTLIPAPVTLEYTHGTALIGPLVTIEDADQSWETLPIEQLSDELRHRYGVTVLRRRTHGTVISLGLDSRLAHDEYTLDVSESEGIRVRGGGESGLRYGLQTLRQIIGQTSRAIPCLHIQDKPAFAVRAYSLDVTRGRVPTMEFLTWFVDQLALYKYNQFQLYVEHAFAFVELSEAWRGTDPLTAADITYLDEYCARRGIELVPSLATFGHMYMNLRTREHRGLGEFPEDADRPFSFIERMEHHTLNAADPKAHDFASRLIEEYAPLFRSKSFNIGGNETFDLGRGRSAQDAPEAGRDELYAGFVRDLCETLARHGRQPMLWADIALESPRTMDLLPGDITMLNWMYEPQIDESKIQTIATQGRRQFVCPAVRAWSRFFPDYAGAWLNTYHMALAGTKYDAEGMVVTDWGDYGHVNDPRLSVPGLCYGAQNAWNPIEIDAHEMNRRISALVYGDESGRIMDCLARIDSDGVSFPWDLAVQVLELEYGSGTGALNMDVAACMERSSGGKLTLDRTLGCDDARRRMLQWNRERIERRRDCDQVLRDCGDAFAGLDKGGLTAEFLSVMLDGQRLFNELGEELLALADGKDVGSGANRLAADLELWFERYRAQWLSVGRHAELARIAHVVWSLADILRRGAL
# Tests used:
# Assay in all cases: glycan array binding signal (z-score within array); higher = stronger binding
# Settings in all cases: glycan notation: IUPAC condensed, linker removed
# Gal(b1-4)Glc6S = biological target: Gal(b1-4)Glc6S
# Procedure, shortened: (§1)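 Arrays were curated from the Consortium for Functional Glycomics database, 3228 in total, and kept only where the protein sequence was available. Binding is expressed as a within-array Z-score. This score was averaged across arrays of the same protein sequence at different concentrations or buffers and across linkers, and negative values can be read as non-binding.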
# Gal(b1-4)GlcNAc = biological target: Gal(b1-4)GlcNAc
# Procedure, shortened: as §1
# [1] = biological target: Gal(b1-4)GlcNAc(a1-6)Gal(b1-4)GlcNAc
# Procedure, shortened: as §1
# Gal(b1-4)GlcNAc(b1-2)Man = biological target: Gal(b1-4)GlcNAc(b1-2)Man
# Procedure, shortened: as §1
# [2] = biological target: Gal(b1-4)GlcNAc(b1-2)Man(a1-3)Man(b1-4)GlcNAc(b1-4)GlcNAc
# Procedure, shortened: as §1
# [3] = biological target: Gal(b1-4)GlcNAc(b1-2)Man(a1-3)[Gal(b1-4)GlcNAc(b1-2)Man(a1-6)]Man(b1-4)GlcNAc(b1-4)GlcNAc
# Procedure, shortened: as §1
# [4] = biological target: Gal(b1-4)GlcNAc(b1-2)Man(a1-3)[Gal(b1-4)GlcNAc(b1-2)Man(a1-6)]Man(b1-4)GlcNAc(b1-4)[Fuc(a1-6)]GlcNAc
# Procedure, shortened: as §1
# [5] = biological target: Gal(b1-4)GlcNAc(b1-2)Man(a1-3)[Gal(b1-4)GlcNAc(b1-2)Man(a1-6)][Gal(b1-4)GlcNAc(b1-4)]Man(b1-4)GlcNAc(b1-4)[Fuc(a1-6)]GlcNAc
# Procedure, shortened: as §1
# [6] = biological target: Gal(b1-4)GlcNAc(b1-2)Man(a1-3)[Gal(b1-4)GlcNAc(b1-2)Man(a1-6)][GlcNAc(b1-4)]Man(b1-4)GlcNAc(b1-4)[Fuc(a1-6)]GlcNAc
# Procedure, shortened: as §1
# [7] = biological target: Gal(b1-4)GlcNAc(b1-2)Man(a1-3)[GlcNAc(b1-2)Man(a1-6)]Man(b1-4)GlcNAc(b1-4)GlcNAc
# Procedure, shortened: as §1
# [8] = biological target: Gal(b1-4)GlcNAc(b1-2)Man(a1-3)[GlcNAc(b1-4)][Gal(b1-4)GlcNAc(b1-2)Man(a1-6)]Man(b1-4)GlcNAc(b1-4)GlcNAc
# Procedure, shortened: as §1
# [9] = biological target: Gal(b1-4)GlcNAc(b1-2)Man(a1-3)[Man(a1-6)]Man(b1-4)GlcNAc(b1-4)GlcNAc
# Procedure, shortened: as §1
# [10] = biological target: Gal(b1-4)GlcNAc(b1-2)Man(a1-6)Man(b1-4)GlcNAc(b1-4)GlcNAc
# Procedure, shortened: as §1
# [11] = biological target: Gal(b1-4)GlcNAc(b1-2)Man(a1-6)[GlcNAc(b1-2)Man(a1-3)]Man(b1-4)GlcNAc(b1-4)GlcNAc
# Procedure, shortened: as §1
# [12] = biological target: Gal(b1-4)GlcNAc(b1-2)Man(a1-6)[Man(a1-3)]Man(b1-4)GlcNAc(b1-4)GlcNAc
# Procedure, shortened: as §1
# [13] = biological target: Gal(b1-4)GlcNAc(b1-2)[Gal(b1-4)GlcNAc(b1-4)]Man(a1-3)[Gal(b1-4)GlcNAc(b1-2)Man(a1-6)]Man(b1-4)GlcNAc(b1-4)GlcNAc
# Procedure, shortened: as §1
# [14] = biological target: Gal(b1-4)GlcNAc(b1-2)[Gal(b1-4)GlcNAc(b1-4)]Man(a1-3)[Gal(b1-4)GlcNAc(b1-2)[Gal(b1-4)GlcNAc(b1-6)]Man(a1-6)]Man(b1-4)GlcNAc(b1-4)GlcNAc
# Procedure, shortened: as §1
# [15] = biological target: Gal(b1-4)GlcNAc(b1-2)[Gal(b1-4)GlcNAc(b1-4)]Man(a1-3)[GlcNAc(b1-4)][Gal(b1-4)GlcNAc(b1-2)Man(a1-6)]Man(b1-4)GlcNAc(b1-4)GlcNAc
# Procedure, shortened: as §1
# [16] = biological target: Gal(b1-4)GlcNAc(b1-2)[Gal(b1-4)GlcNAc(b1-4)]Man(a1-3)[GlcNAc(b1-4)][Gal(b1-4)GlcNAc(b1-2)[Gal(b1-4)GlcNAc(b1-6)]Man(a1-6)]Man(b1-4)GlcNAc(b1-4)GlcNAc
# Procedure, shortened: as §1
# [17] = biological target: Gal(b1-4)GlcNAc(b1-2)[Gal(b1-4)GlcNAc(b1-6)]Man(a1-6)[Gal(b1-4)GlcNAc(b1-2)Man(a1-3)]Man(b1-4)GlcNAc(b1-4)GlcNAc
# Procedure, shortened: as §1
# [18] = biological target: Gal(b1-4)GlcNAc(b1-2)[Gal(b1-4)GlcNAc(b1-6)]Man(a1-6)[Gal(b1-4)GlcNAc(b1-2)Man(a1-3)]Man(b1-4)GlcNAc(b1-4)[Fuc(a1-6)]GlcNAc
# Procedure, shortened: as §1
# [19] = biological target: Gal(b1-4)GlcNAc(b1-2)[Gal(b1-4)GlcNAc(b1-6)]Man(a1-6)[GlcNAc(b1-4)][Gal(b1-4)GlcNAc(b1-2)Man(a1-3)]Man(b1-4)GlcNAc(b1-4)GlcNAc
# Procedure, shortened: as §1
# [20] = biological target: Gal(b1-4)GlcNAc(b1-2)[Gal(b1-4)GlcNAc(b1-6)]Man(a1-6)[GlcNAc(b1-4)][Gal(b1-4)GlcNAc(b1-2)[Gal(b1-4)GlcNAc(b1-4)]Man(a1-3)]Man(b1-4)GlcNAc(b1-4)[Fuc(a1-6)]GlcNAc
# Procedure, shortened: as §1
# [21] = biological target: Gal(b1-4)GlcNAc(b1-3)Gal(b1-3)GalNAc
# Procedure, shortened: as §1
# [22] = biological target: Gal(b1-4)GlcNAc(b1-3)Gal(b1-3)GlcNAc
# Procedure, shortened: as §1
# [23] = biological target: Gal(b1-4)GlcNAc(b1-3)Gal(b1-4)Glc
# Procedure, shortened: as §1
# [24] = biological target: Gal(b1-4)GlcNAc(b1-3)Gal(b1-4)GlcNAc
# Procedure, shortened: as §1
# [25] = biological target: Gal(b1-4)GlcNAc(b1-3)Gal(b1-4)GlcNAc(b1-2)Man(a1-3)[Gal(b1-4)GlcNAc(b1-3)Gal(b1-4)GlcNAc(b1-2)Man(a1-6)]Man(b1-4)GlcNAc(b1-4)GlcNAc
# Procedure, shortened: as §1
# [26] = biological target: Gal(b1-4)GlcNAc(b1-3)Gal(b1-4)GlcNAc(b1-2)Man(a1-3)[Gal(b1-4)GlcNAc(b1-3)Gal(b1-4)GlcNAc(b1-2)Man(a1-6)]Man(b1-4)GlcNAc(b1-4)[Fuc(a1-6)]GlcNAc
# Procedure, shortened: as §1
# [27] = biological target: Gal(b1-4)GlcNAc(b1-3)Gal(b1-4)GlcNAc(b1-2)[Gal(b1-4)GlcNAc(b1-3)Gal(b1-4)GlcNAc(b1-6)]Man(a1-6)[Gal(b1-4)GlcNAc(b1-3)Gal(b1-4)GlcNAc(b1-2)Man(a1-3)]Man(b1-4)GlcNAc(b1-4)GlcNAc
# Procedure, shortened: as §1
binder,measurement,setting,value
B1,glycan array binding signal (z-score),Gal(b1-4)Glc6S,0.254
same,glycan array binding signal (z-score),Gal(b1-4)GlcNAc,-0.184
same,glycan array binding signal (z-score),[1],-1.16
same,glycan array binding signal (z-score),Gal(b1-4)GlcNAc(b1-2)Man,1.31
same,glycan array binding signal (z-score),[2],-0.539
same,glycan array binding signal (z-score),[3],0.239
same,glycan array binding signal (z-score),[4],1.37
same,glycan array binding signal (z-score),[5],0.302
same,glycan array binding signal (z-score),[6],-1.12
same,glycan array binding signal (z-score),[7],-0.879
same,glycan array binding signal (z-score),[8],-0.773
same,glycan array binding signal (z-score),[9],-0.218
same,glycan array binding signal (z-score),[10],0.871
same,glycan array binding signal (z-score),[11],-0.3
same,glycan array binding signal (z-score),[12],-0.769
same,glycan array binding signal (z-score),[13],-0.808
same,glycan array binding signal (z-score),[14],-0.73
same,glycan array binding signal (z-score),[15],0.021
same,glycan array binding signal (z-score),[16],-0.049
same,glycan array binding signal (z-score),[17],0.095
same,glycan array binding signal (z-score),[18],-0.962
same,glycan array binding signal (z-score),[19],-0.525
same,glycan array binding signal (z-score),[20],0.039
same,glycan array binding signal (z-score),[21],0.565
same,glycan array binding signal (z-score),[22],-0.175
same,glycan array binding signal (z-score),[23],0.155
same,glycan array binding signal (z-score),[24],1.27
same,glycan array binding signal (z-score),[25],0.992
same,glycan array binding signal (z-score),[26],-0.957
same,glycan array binding signal (z-score),[27],0.393

# Shown with tabs: entries from further up.
binder	measurement	setting	value
B1	glycan array binding signal (z-score)	[1]	-1.16
same	glycan array binding signal (z-score)	Gal(b1-4)GlcNAc(b1-2)Man	1.31
same	glycan array binding signal (z-score)	[2]	-0.539
same	glycan array binding signal (z-score)	[3]	0.239
same	glycan array binding signal (z-score)	[4]	1.37
same	glycan array binding signal (z-score)	[5]	0.302
same	glycan array binding signal (z-score)	[6]	-1.12
same	glycan array binding signal (z-score)	[7]	-0.879
